Laboratory results from ChEMBL document CHEMBL1671695, “Specificity of induction of the vanA and vanB operons in vancomycin-resistant enterococci by telavancin” (Antimicrob Agents Chemother, 2010).
≈ marks a conversion by molar mass, not a printed value.

Test system: Enterococcus faecium
Experiment: Antimicrobial activity against Enterococcus faecium ATCC 51559 by broth microdilution method
Format: functional
Method in brief: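 Broth microdilution MIC per CLSI-approved methods; strains maintained on tryptic soy agar with 5% sheep blood at 37°C.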

CN[C@H](CC(C)C)C(=O)N[C@H]1C(=O)N[C@@H](CC(N)=O)C(=O)N[C@H]2C(=O)N[C@H]3C(=O)N[C@H](C(=O)N[C@H](C(=O)O)c4cc(O)cc(O)c4-c4cc3ccc4O)[C@H](O)c3ccc(c(Cl)c3)Oc3cc2cc(c3O[C@@H]2O[C@H](CO)[C@@H](O)[C@H](O)[C@H]2O[C@H]2C[C@](C)(N)[C@H](O)[C@H](C)O2)Oc2ccc(cc2Cl)[C@H]1O [VANCOMYCIN]
MIC: 1020 µg/mL (≈ 707 µM)
